# For expression read-outs the peptide stands for its source gene, whose mRNA was measured; the gene is not named for every peptide.
# Test system: source genes of the peptides
# Test: Target coverage of source genes based on TCGA Research Network expression data
# Parameters: species or system human
# Settings: for Target coverage, over-expression category of source gene, STAD: Stomach adenocarcinoma (N = 415); for Target coverage, over-expression category of source gene, TGCT: Testicular germ cell tumors (N = 156); for Target coverage, over-expression category of source gene, STAD (N = 415): Stomach adenocarcinoma; for Target coverage, over-expression category of source gene, SARC (N = 263): Sarcoma; for Target coverage, over-expression category of source gene, SARC: Sarcoma (N = 263); for Target coverage, over-expression category of source gene, SKCM: Skin cutaneous melanoma (N = 473); for Target coverage, over-expression category of source gene, THYM: Thymoma (N = 120); for Target coverage, over-expression category of source gene, UCS: Uterine carcinosarcoma (N = 57); for Target coverage, over-expression category of source gene, UCEC: Uterine corpus endometrial carcinoma (N = 546); for Target coverage, over-expression category of source gene, TGCT (N = 156): Testicular germ cell tumors; for Target coverage, over-expression category of source gene, SKCM (N = 473): Skin cutaneous melanoma; for Target coverage, over-expression category of source gene, THYM (N = 120): Thymoma; for Target coverage, over-expression category of source gene, UCS (N = 57): Uterine carcinosarcoma; for Target coverage, over-expression category of source gene, UCEC (N = 546): Uterine corpus endometrial carcinoma
# [1] = cutoff more than 2-fold above highest 75% percentile of normal organs
substance,measurement,setting,value
405: peptide found in MMP12 (gene looked up) (NYPKSIHSF; listed as Homo sapiens) [compound 405],"Target coverage, over-expression category of source gene, STAD",,"B (>=20% of tumors above the cutoff, but <50%)"
same,"Target coverage, over-expression category of source gene, TGCT",,"B (>=20% of tumors above the cutoff, but <50%)"
129: peptide found in MOB1A (gene looked up) (KYIDYLMTW; listed as Homo sapiens) [compound 129],"Target coverage, over-expression category of source gene, STAD (N = 415)",[1],"C (>=5% of tumors above the cutoff, but <20%)"
285: peptide found in TRPC4 (gene looked up) (VYVGDALLHAI; listed as Homo sapiens) [compound 285],"Target coverage, over-expression category of source gene, SARC (N = 263)",[1],"C (>=5% of tumors above the cutoff, but <20%)"
391: peptide found in CDK1 (gene looked up) (LYQILQGIVF; listed as Homo sapiens) [compound 391],"Target coverage, over-expression category of source gene, SARC",,"B (>=20% of tumors above the cutoff, but <50%)"
same,"Target coverage, over-expression category of source gene, SKCM",,"C (>=5% of tumors above the cutoff, but <20%)"
same,"Target coverage, over-expression category of source gene, STAD",,"B (>=20% of tumors above the cutoff, but <50%)"
same,"Target coverage, over-expression category of source gene, TGCT",,"C (>=5% of tumors above the cutoff, but <20%)"
same,"Target coverage, over-expression category of source gene, THYM",,"B (>=20% of tumors above the cutoff, but <50%)"
same,"Target coverage, over-expression category of source gene, UCS",,"B (>=20% of tumors above the cutoff, but <50%)"
same,"Target coverage, over-expression category of source gene, UCEC",,"B (>=20% of tumors above the cutoff, but <50%)"
110: peptide found in FANCD2 (gene looked up) (SYPKIIEEF; listed as Homo sapiens) [compound 110],"Target coverage, over-expression category of source gene, SARC (N = 263)",[1],"C (>=5% of tumors above the cutoff, but <20%)"
same,"Target coverage, over-expression category of source gene, STAD (N = 415)",[1],"C (>=5% of tumors above the cutoff, but <20%)"
same,"Target coverage, over-expression category of source gene, TGCT (N = 156)",[1],A (>=50% of tumors above the cutoff)
237: peptide found in KIF14 (gene looked up) (KYVGQLAVL; listed as Homo sapiens) [compound 237],"Target coverage, over-expression category of source gene, SKCM (N = 473)",[1],A (>=50% of tumors above the cutoff)
same,"Target coverage, over-expression category of source gene, STAD (N = 415)",[1],A (>=50% of tumors above the cutoff)
same,"Target coverage, over-expression category of source gene, TGCT (N = 156)",[1],A (>=50% of tumors above the cutoff)
same,"Target coverage, over-expression category of source gene, THYM (N = 120)",[1],A (>=50% of tumors above the cutoff)
same,"Target coverage, over-expression category of source gene, UCS (N = 57)",[1],A (>=50% of tumors above the cutoff)
54: peptide found in ITGA2 (gene looked up) (FINPKGNWLL; listed as Homo sapiens) [compound 54],"Target coverage, over-expression category of source gene, STAD (N = 415)",[1],"C (>=5% of tumors above the cutoff, but <20%)"
same,"Target coverage, over-expression category of source gene, THYM (N = 120)",[1],"C (>=5% of tumors above the cutoff, but <20%)"
same,"Target coverage, over-expression category of source gene, THCA (N = 513)","Thyroid carcinoma, cutoff more than 2-fold above highest 75% percentile of normal organs","C (>=5% of tumors above the cutoff, but <20%)"
398: peptide found in KIF2C (gene looked up) (IYNGKLFDLL; listed as Homo sapiens) [compound 398],"Target coverage, over-expression category of source gene, SARC",,"B (>=20% of tumors above the cutoff, but <50%)"
same,"Target coverage, over-expression category of source gene, SKCM",,"B (>=20% of tumors above the cutoff, but <50%)"
same,"Target coverage, over-expression category of source gene, STAD",,"B (>=20% of tumors above the cutoff, but <50%)"
same,"Target coverage, over-expression category of source gene, TGCT",,A (>=50% of tumors above the cutoff)
same,"Target coverage, over-expression category of source gene, THYM",,A (>=50% of tumors above the cutoff)
same,"Target coverage, over-expression category of source gene, UCS",,A (>=50% of tumors above the cutoff)
same,"Target coverage, over-expression category of source gene, UCEC",,"B (>=20% of tumors above the cutoff, but <50%)"
125: peptide found in PRKDC (gene looked up) (VFSRDFGLLVF; listed as Homo sapiens) [compound 125],"Target coverage, over-expression category of source gene, SARC (N = 263)",[1],"C (>=5% of tumors above the cutoff, but <20%)"
same,"Target coverage, over-expression category of source gene, SKCM (N = 473)",[1],"C (>=5% of tumors above the cutoff, but <20%)"
same,"Target coverage, over-expression category of source gene, UVM (N = 80)","Uveal melanoma, cutoff more than 2-fold above highest 75% percentile of normal organs","C (>=5% of tumors above the cutoff, but <20%)"
354: peptide found in KIF18A (gene looked up) (VYNEQIRDLL; listed as Homo sapiens) [compound 354],"Target coverage, over-expression category of source gene, SARC",,"B (>=20% of tumors above the cutoff, but <50%)"
same,"Target coverage, over-expression category of source gene, SKCM",,"B (>=20% of tumors above the cutoff, but <50%)"
same,"Target coverage, over-expression category of source gene, STAD",,A (>=50% of tumors above the cutoff)
same,"Target coverage, over-expression category of source gene, TGCT",,A (>=50% of tumors above the cutoff)
same,"Target coverage, over-expression category of source gene, THYM",,"B (>=20% of tumors above the cutoff, but <50%)"
same,"Target coverage, over-expression category of source gene, UCS",,A (>=50% of tumors above the cutoff)
same,"Target coverage, over-expression category of source gene, UCEC",,"B (>=20% of tumors above the cutoff, but <50%)"
369: peptide found in CDK1 (gene looked up) (VYTHEVVTL; listed as Homo sapiens) [compound 369],"Target coverage, over-expression category of source gene, SARC",,"B (>=20% of tumors above the cutoff, but <50%)"
same,"Target coverage, over-expression category of source gene, SKCM",,"C (>=5% of tumors above the cutoff, but <20%)"
same,"Target coverage, over-expression category of source gene, STAD",,"B (>=20% of tumors above the cutoff, but <50%)"
same,"Target coverage, over-expression category of source gene, TGCT",,"C (>=5% of tumors above the cutoff, but <20%)"
same,"Target coverage, over-expression category of source gene, THYM",,"B (>=20% of tumors above the cutoff, but <50%)"
same,"Target coverage, over-expression category of source gene, UCS",,"B (>=20% of tumors above the cutoff, but <50%)"
same,"Target coverage, over-expression category of source gene, UCEC",,"B (>=20% of tumors above the cutoff, but <50%)"
214: peptide found in CCNB2 (gene looked up) (KYLMELTLI; listed as Homo sapiens) [compound 214],"Target coverage, over-expression category of source gene, SKCM (N = 473)",[1],"C (>=5% of tumors above the cutoff, but <20%)"
same,"Target coverage, over-expression category of source gene, TGCT (N = 156)",[1],A (>=50% of tumors above the cutoff)
same,"Target coverage, over-expression category of source gene, THYM (N = 120)",[1],A (>=50% of tumors above the cutoff)
same,"Target coverage, over-expression category of source gene, UCEC (N = 546)",[1],"C (>=5% of tumors above the cutoff, but <20%)"
92: peptide found in IGFBP3 (gene looked up) (LLRGPPVARA; listed as Homo sapiens) [compound 92],"Target coverage, over-expression category of source gene, SARC (N = 263)",[1],"C (>=5% of tumors above the cutoff, but <20%)"
same,"Target coverage, over-expression category of source gene, SKCM (N = 473)",[1],"C (>=5% of tumors above the cutoff, but <20%)"
same,"Target coverage, over-expression category of source gene, UCEC (N = 546)",[1],"C (>=5% of tumors above the cutoff, but <20%)"
348: peptide found in FANCD2 (gene looked up) (IYLEHTESI; listed as Homo sapiens) [compound 348],"Target coverage, over-expression category of source gene, SARC (N = 263)",[1],"C (>=5% of tumors above the cutoff, but <20%)"
same,"Target coverage, over-expression category of source gene, STAD (N = 415)",[1],"C (>=5% of tumors above the cutoff, but <20%)"
same,"Target coverage, over-expression category of source gene, TGCT (N = 156)",[1],A (>=50% of tumors above the cutoff)
335: peptide found in NUP210 (gene looked up) (VLLAAGPSAA; listed as Homo sapiens) [compound 335],"Target coverage, over-expression category of source gene, PRAD (N = 498)","Prostate adenocarcinoma, cutoff more than 2-fold above highest 75% percentile of normal organs","C (>=5% of tumors above the cutoff, but <20%)"
same,"Target coverage, over-expression category of source gene, SARC (N = 263)",[1],"C (>=5% of tumors above the cutoff, but <20%)"
same,"Target coverage, over-expression category of source gene, TGCT (N = 156)",[1],"C (>=5% of tumors above the cutoff, but <20%)"
same,"Target coverage, over-expression category of source gene, THYM (N = 120)",[1],A (>=50% of tumors above the cutoff)
same,"Target coverage, over-expression category of source gene, UCS (N = 57)",[1],"C (>=5% of tumors above the cutoff, but <20%)"
277: peptide found in TDG (gene looked up) (FYTFPFQQL; listed as Homo sapiens) [compound 277],"Target coverage, over-expression category of source gene, STAD (N = 415)",[1],"C (>=5% of tumors above the cutoff, but <20%)"
same,"Target coverage, over-expression category of source gene, UCEC (N = 546)",[1],"C (>=5% of tumors above the cutoff, but <20%)"
397: peptide found in KIF2C (gene looked up) (IYNGKLFDL; listed as Homo sapiens) [compound 397],"Target coverage, over-expression category of source gene, SARC",,"B (>=20% of tumors above the cutoff, but <50%)"
same,"Target coverage, over-expression category of source gene, SKCM",,"B (>=20% of tumors above the cutoff, but <50%)"
same,"Target coverage, over-expression category of source gene, STAD",,"B (>=20% of tumors above the cutoff, but <50%)"
same,"Target coverage, over-expression category of source gene, TGCT",,A (>=50% of tumors above the cutoff)
same,"Target coverage, over-expression category of source gene, THYM",,A (>=50% of tumors above the cutoff)
same,"Target coverage, over-expression category of source gene, UCS",,A (>=50% of tumors above the cutoff)
same,"Target coverage, over-expression category of source gene, UCEC",,"B (>=20% of tumors above the cutoff, but <50%)"
361: peptide found in PSMC1 (gene looked up) (TYADIGGLDNQI; listed as Homo sapiens) [compound 361],"Target coverage, over-expression category of source gene, SARC",,"C (>=5% of tumors above the cutoff, but <20%)"
same,"Target coverage, over-expression category of source gene, TGCT",,"B (>=20% of tumors above the cutoff, but <50%)"
same,"Target coverage, over-expression category of source gene, THYM",,"C (>=5% of tumors above the cutoff, but <20%)"
same,"Target coverage, over-expression category of source gene, UCS",,"C (>=5% of tumors above the cutoff, but <20%)"
same,"Target coverage, over-expression category of source gene, UCEC",,"B (>=20% of tumors above the cutoff, but <50%)"

# Reference: US11541107B2, “Peptides and T cells for use in immunotherapeutic treatment of various cancers” (Immatics Biotechnologies GmbH, priority 2015, dated 2023)
